# Tests used:
# [1] = Yellowishness, visual observation of laminate on white paper
# [2] = Haze (initial haze) of ultraviolet absorbing film by haze meter
# [3] = 5.0 parts agent/45.0 parts PVA film
# [4] = film from 5.0 parts agent, 45.0 parts PVA, dip coating, 1.5 mm, compensated for glass plate haze (0.20%) (Examples 1-5, Comparative Examples 1-5)
# [5] = 2.0 parts agent/98.0 parts PVA film
# [6] = film from 2.0 parts agent, 98.0 parts PVA, spin coating (Examples 6-9)
Compound,"Yellowishness [1, 3]","Initial haze [2, 4]","Yellowishness [1, 5]","Initial haze [2, 6]","Initial haze ([2]; in words, summary of Table 1)"
"CCCCC(CC)COc1ccc(OCC(CC)CCCC)c2c1SC(=C1C(=O)N(CCCC)N(CCCC)C1=O)S2 (centres unmarked) [Compound H-5, reference compound]",Yes,14,,,
"O=S(=O)([O-])CCNc1nc(NCCS(=O)(=O)[O-])nc(Nc2ccc(C=Cc3ccc(Nc4nc(NCCS(=O)(=O)[O-])nc(NCCS(=O)(=O)[O-])n4)cc3S(=O)(=O)[O-])c(S(=O)(=O)[O-])c2)n1.[Na+].[Na+].[Na+].[Na+].[Na+].[Na+] [Compound H-3, reference compound]",No,0.8,,,
N#CC(C#N)=C1Sc2c(OC(=O)CCC(=O)[O-])ccc(OC(=O)CCC(=O)[O-])c2S1.[Na+].[Na+] [Compound M-8],No,0.21,No,0.1,
N#CC(C#N)=C1Sc2c(OCCCCS(=O)(=O)[O-])ccc(OCCCCS(=O)(=O)[O-])c2S1.[Na+].[Na+] [Compound M-3],No,0.22,No,0.1,
CON=CC(C#N)=C1Sc2c(OCCCCS(=O)(=O)[O-])ccc(OCCCCS(=O)(=O)[O-])c2S1.[Na+].[Na+] [Compound M-5],No,0.23,,,
"CCCCN1C(=O)C(=C2Sc3c(OCCCCS(=O)(=O)[O-])c4c(c(OCCCCS(=O)(=O)[O-])c3S2)SC(=C2C(=O)N(CCCC)N(CCCC)C2=O)S4)C(=O)N1CCCC.[Na+].[Na+] [Compound H-4, reference compound]",Yes,4.5,,,good
"O=C(c1ccc(O)cc1O)c1ccc(O)cc1O [Compound H-1, reference compound]",No,0.4,,,
CCCCN1C(=O)C(=C2Sc3c(OCCCCS(=O)(=O)[O-])ccc(OCCCCS(=O)(=O)[O-])c3S2)C(=O)N1CCCC.[Na+].[Na+] [Compound M-11],No,0.2,No,0.1,
